The list shows a part of the results. The main result of the screen is listed elsewhere. These columns were measured beside it and carry no call. Compounds called inactive in the main read-out are mostly missing here. Words in brackets tell the shape of the fitted curve; partial curves, single points and poor fits give uncertain potencies.
Assay: qHTS Assay for Modulators of Lamin A Splicing
Conditions: HeLa LMNA splicing GFP/RFP minigene ratio, 48 h
Outline: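 S3 HeLa stable clones carrying a lamin A-EGFP splicing minigene plus DsRed2 were seeded at 600 cells/well in Opti-MEM with 2% FBS, pin-dosed and incubated 48 h at 37°C. Acumen cytometry (488 nm) gave the GFP/RFP total-intensity ratio.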

[1] = measured here: GFP splicing reporter channel
[2] = measured here: RFP viability control channel

| SMILES | AC50 [1] | AC50 [2] |
| --- | --- | --- |
| Cc1ccnc(N2C(=O)c3cccc4c([N+](=O)[O-])ccc(c34)C2=O)c1 | 31.6 µM [falling, single point] | 35.5 µM [falling, single point] |
| CC(C)C(=O)NC(=S)Nc1ccc(S(=O)(=O)N(C)Cc2ccccc2)cc1 | – | 20 µM [rising, single point] |
| Cc1ccc(-c2noc(CCC(=O)NCCN3CCN(Cc4ccccc4)CC3)n2)cc1 | 11.2 µM [rising, single point] | 14.1 µM [rising, single point] |
| O=Cc1ccnc(-c2ccc(OC(=O)c3ccco3)cc2)n1 | 0.0447 µM [falling, full curve, poor fit] | – |
| Cc1ccc(S(=O)(=O)NCCC(c2ccccc2)c2ccccc2)cc1C(=O)O | – | 0.00316 µM [falling, full curve, poor fit] |
| O=C(Nc1ccc(F)cc1)c1nn(-c2ccccc2)c(=O)cc1Cl | 17.8 µM [falling, single point] | 0.708 µM [falling, single point] |
| O=C(Nc1ccc(S(=O)(=O)Nc2ccc(Cl)cc2)cc1)C1CCCO1 (configuration not stated) | – | 11.2 µM [rising, partial curve] |
| CCc1nc(Nc2ccncc2)c2oc3ccccc3c2n1 | – | 11.2 µM [rising, partial curve] |
| CCC1(c2cccc(Cl)c2)NC(=O)N(Cc2cc(C(=O)OC)c(C)o2)C1=O (configuration not stated) | – | 22.4 µM [rising, single point] |
| O=[N+]([O-])c1ccc(Sc2n[nH]c(-c3ccco3)n2)nc1 | 0.0501 µM [rising, partial curve, poor fit] | – |
| CCOC(=O)C1CCCN(S(=O)(=O)c2cc(OCC(=O)NC3CCCCC3)c(C)cc2Cl)C1 (configuration not stated) | – | 35.5 µM [rising, single point] |
| CCc1ccc(CNc2ccc3c(c2)ncn3C)cc1 | 12.6 µM [rising, partial curve] | 15.8 µM [rising, partial curve] |
| CC1CCN(C(=O)CSc2ccc(-c3ccc(F)cc3)nn2)CC1 | 25.1 µM [rising, single point] | 35.5 µM [rising, single point] |
| Cc1ccc(C(=O)c2cc([N+](=O)[O-])ccc2N2CCCCC2)c(C)c1 | 0.224 µM [falling, full curve, poor fit] | – |
| CC(Cc1ccccc1)C(=O)N(C)Cc1cccnc1 (configuration not stated) | – | 0.398 µM [rising, full curve] |
| COc1cc(NS(=O)(=O)c2ccc(N/C=C(\C=O)c3nc4cc(Cl)ccc4o3)cc2)nc(OC)n1 | 1.78 µM [rising, partial curve, poor fit] | – |
| CCOC(=O)c1ccc(NC(=O)c2c(NCc3sccc3C)sc3c2CCCCC3)cc1 | 7.08 µM [rising, partial curve] | 25.1 µM [rising, partial curve, poor fit] |
| Cc1ccc(NS(=O)(=O)c2cc([N+](=O)[O-])ccc2NNC(=S)Nc2cccc(Cl)c2)c(C)c1 | 15.8 µM [falling, partial curve] | 35.5 µM [rising, single point] |

| SMILES | AC50 [1] | AC50 [2] |
| --- | --- | --- |
| COc1cc(/C=c2\sc3n(c2=O)C(c2ccccc2)C(c2ccccc2)=NN=3)ccc1O (configuration not stated) | – | 10 µM [rising, partial curve, poor fit] |
| COc1ccc(Cn2nnnc2C(C(C)C)N(Cc2ccco2)Cc2cccs2)cc1 (configuration not stated) | 28.2 µM [rising, partial curve] | 35.5 µM [rising, single point] |
| COc1ccc(-c2[nH]ncc2CN2CCN(c3ccccn3)CC2)c(OC)c1 | – | 12.6 µM [falling, partial curve, poor fit] |
| Cc1c(NC(=O)C2CCCCC2)cc(C(=O)N2CCOCC2)cc1[N+](=O)[O-] | 0.0224 µM [falling, full curve, poor fit] | – |
| Cc1ccc2nc3c(c(Nc4ccc5c(c4)OCCO5)c2c1)CCC3 | 17.8 µM [rising, single point] | 15.8 µM [rising, partial curve] |
| C(=N\c1nccs1)/c1cccnc1 | – | 5.62 µM [rising, single point] |
| COc1ccc(-c2cn(-c3ccc(OC)cc3)c3[n+]2-c2ccccc2CC3)cc1 | – | 3.98 µM [rising, full curve] |
| O=C(CN1C(=O)C2CCCCC2C1=O)Nc1nc(-c2ccccn2)cs1 (configuration not stated) | – | 17.8 µM [rising, single point] |
| O=C(Nc1cccc(O)c1)c1cc(S(=O)(=O)N2CCCC2)ccc1Cl | 22.4 µM [rising, single point] | 25.1 µM [rising, single point] |
| O=C(Nc1ccc2nc(C3CC3)n(Cc3ccc(F)cc3)c(=O)c2c1)c1ccco1 | 35.5 µM [rising, single point] | 25.1 µM [rising, single point] |
| Cc1ccc(OCC(=O)Nc2ccc(Cl)c(-c3nc4ccccc4[nH]3)c2)cc1C | 35.5 µM [falling, single point] | – |
| O=c1c(-c2ccc(F)cc2)nc2cnc(Oc3cccc(Cl)c3)nc2n1C[C@H]1CCCO1 | 14.1 µM [falling, partial curve, poor fit] | – |
| COC(CNC(=S)Nc1ccc([N+](=O)[O-])cc1)OC | – | 35.5 µM [rising, single point] |
| COc1cc(/C=C/c2ccc3cccc([N+](=O)[O-])c3n2)ccc1OCC#N | – | 15.8 µM [rising, partial curve, poor fit] |
| COc1cc(Cc2cnc(N)nc2N)cc(OC)c1OC | 6.31 µM [rising, single point] | – |
| O=C(c1ccc2[nH]c3c(c2c1)CCCC3)N1CCN(c2ccc(F)cc2)CC1 | – | 15.8 µM [rising, single point] |
| CC(=O)Nc1ccc(OCC(O)Cn2c(C)nc3ccccc32)cc1 (configuration not stated) | – | 35.5 µM [rising, single point] |
| Cc1ccc(S(=O)(=O)Nc2nc3ccccc3nc2N2CCc3ccccc3C2)cc1 | – | 25.1 µM [falling, single point] |

Arranged by molecular weight (smallest number first): 3 of the compounds above

| SMILES | AC50 [1] | AC50 [2] |
| --- | --- | --- |
| COC(CNC(=S)Nc1ccc([N+](=O)[O-])cc1)OC | – | 35.5 µM [rising, single point] |
| Cc1ccc2nc3c(c(Nc4ccc5c(c4)OCCO5)c2c1)CCC3 | 17.8 µM [rising, single point] | 15.8 µM [rising, partial curve] |
| COc1cc(/C=c2\sc3n(c2=O)C(c2ccccc2)C(c2ccccc2)=NN=3)ccc1O (configuration not stated) | – | 10 µM [rising, partial curve, poor fit] |

Reference: PubChem BioAssay AID1487 (National Center for Advancing Translational Sciences (NCATS), 2009)
